Experimental data published in PubChem BioAssay AID651814 (National Center for Advancing Translational Sciences (NCATS), 2012).
Out of some 2,100 compounds screened, about 590 (28%) were called active. Inconclusive results, whose numbers are uncertain, are shown with a selection of clear calls. Calls follow the shape of the dose curve; as a rule, active = well fitted inhibition curve with a large enough effect; inconclusive = small, poorly fitted or top-dose-only effect; inactive = flat fitted curve, though single readings scatter. Where the call is inconclusive, the potency comes from a doubtful curve fit.
Also: nearly all actives have a fitted effect of over 70% in size.
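For max response in this document: % of control where 0% means no effect; active compounds raise eYFP fluorescence by blocking Vif-driven A3F loss.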
Potency is read from the fitted curve at half-maximal effect.

Protein sequences, listed by entry. Tags and fused reporters are not part of them. Lines headed by an entry give the natural chain unless they say otherwise; changes in a name come on top.
UniProt Q8IUX4: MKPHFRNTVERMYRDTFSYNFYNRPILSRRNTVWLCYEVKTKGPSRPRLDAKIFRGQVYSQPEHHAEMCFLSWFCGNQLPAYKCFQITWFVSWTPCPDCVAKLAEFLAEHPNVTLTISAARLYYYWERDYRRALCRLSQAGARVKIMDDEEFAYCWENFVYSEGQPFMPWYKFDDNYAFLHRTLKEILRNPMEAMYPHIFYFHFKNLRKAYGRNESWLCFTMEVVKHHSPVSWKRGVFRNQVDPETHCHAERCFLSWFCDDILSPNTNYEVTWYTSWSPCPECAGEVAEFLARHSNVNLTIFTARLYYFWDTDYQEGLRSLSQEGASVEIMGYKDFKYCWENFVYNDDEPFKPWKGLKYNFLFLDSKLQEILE

These compounds were tested against DNA dC->dU-editing enzyme APOBEC-3F (Homo sapiens) (UniProt Q8IUX4) (assay: qHTS for inhibitors of Vif-A3F interactions: Cherry picks). Conditions: HeLa A3F-eYFP + Vif (tagged APOBEC3F with the HIV-1 protein that degrades it), eYFP fluorescence, 24 h.
How it was run: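 HeLa cells stably expressing A3F-eYFP plus Vif, cultured overnight, then exposed to compounds at several concentrations for 24 h at 37 deg C. Reduced Vif-driven degradation read as rising eYFP fluorescence (488 nm ex/500-530 nm em) by laser-scanning cytometry; MG132 as positive control.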
In the case of Cc1ccc2nsnc2c1NC(=O)c1ccc(-c2cc(Cl)ccc2Cl)o1, the Potency is reported as inconclusive: 15.8 µM [inhibitor, single point].
In the case of O=[N+]([O-])c1ccc(C2=Nc3cc(Cl)ccc3OC2)cc1, the Potency is reported as inconclusive: 25.9 µM [inhibitor, single point].
In the case of COc1cccc(C(=O)Nc2ncc3c(n2)CC(c2ccc(OC)cc2OC)CC3=O)c1 (stereo not drawn), the Potency is reported as inconclusive: 3.96 µM [inhibitor, full curve, poor fit].
For CC(C)c1ccc(NC(=O)Nc2cnccn2)cc1, the max response was inactive: -23.5%.
O=c1[nH]c(NCc2ccco2)nnc1Cc1ccccc1Cl was tested, and the Potency was inconclusive: 14 µM [inhibitor, partial curve].
CC(=O)c1cccc(-c2ccnc3c2CC(C(=O)NCc2ccc(F)c(F)c2)O3)c1 (stereo not drawn) was tested, and the Potency was inconclusive: 2.23 µM [inhibitor, full curve].
In the case of O=C(N/N=C/c1c[nH]c2ccccc12)C1COc2ccccc2O1 (stereo not drawn), the max response is reported as inactive: 4.43%.
With CCOC(=O)C(C(=O)OCC)C(Nc1cccc(Br)c1)c1ccccc1 (stereo not drawn) the Potency was inconclusive: 14 µM [inhibitor, single point].
COc1ccccc1N1CCN(C(=O)c2cc(=O)c3cc(C)ccc3o2)CC1 was tested, and the Potency was inconclusive: 3.53 µM [inhibitor, full curve].
CC1(C)Cc2nc3sc4c(=O)n(CC(=O)NCc5ccccc5)cnc4c3cc2CO1 was tested, and the Potency was inconclusive: 2.23 µM [inhibitor, full curve].
For CCOC(=O)c1ccc(NC(=O)Cn2ncc(Cl)c(Cl)c2=O)cc1, the max response was inactive: -29.1%.
With Cc1ccc(C(=O)NC2c3ccccc3-c3ccccc32)cc1 the Potency was inconclusive: 2.8 µM [inhibitor, full curve].
For Cc1ccc(/C=N/NC(=O)c2cc(C)oc2C)cc1, the Potency was inconclusive: 3.14 µM [inhibitor, full curve].
O=c1oc2c3c4c(cc2c(C(F)(F)F)c1CCN1CCOCC1)CCCN4CCC3 was tested, and the Potency was inconclusive: 3.66 µM [inhibitor, partial curve].
Cc1c(/C=N\NC(=O)c2cc3ccccc3o2)c2ccccc2n1C was tested, and the Potency was inconclusive: 3.96 µM [inhibitor, full curve].
With CN(C)CCOc1ccc2c(c1)C(=O)C(=Cc1ncc([N+](=O)[O-])n1C)C2 the Potency was inconclusive: 6.27 µM [inhibitor, partial curve].
For CCOC(=O)N1CCN(c2c(NCc3ccc(F)cc3)c(=O)c2=O)CC1, the Potency was inconclusive: 14 µM [inhibitor, single point].
In the case of CC(=O)N/N=C/c1cc(C(C)C)cc(/C=N/NC(C)=O)c1O, the Potency is reported as inconclusive: 16.4 µM [inhibitor, partial curve].
